Data: the supplement of paper PMC6078165
± gives the standard deviation of the averaged measurements. Values are relative to the signal before dosing, not to a vehicle control; the signal also falls without drug.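 Labels refer to human fibroblasts, largely primary: uterine (C12385, HUF), lung (H6013), bone (Hs27A), adrenal (HADF), skin (WS1), plus mammary HMF and breast cancer-associated Hs343T. Cancer lines are basal-like or mesenchymal-like triple-negative breast cancer. The paper counts as hits responses shifting over 3x the replicate standard deviation. The tissue of the other fibroblasts is not given here.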

Tested on: Hs578T
Experiment: relative JC-1 red fluorescence (viability) vs pre-drug, coculture with fibroblast (fraction); higher = more viable cancer cells
Description: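 JC-1 labelled TNBC cells cocultured 1:1 (1,500 cells each) with CellTrace Violet stained primary or stromal fibroblasts in 384-well plates in FluoroBrite medium, treated with one of 42 anticancer drugs at 0.1, 1, 10 or 100 uM. JC-1 red fluorescence (mitochondrial integrity in cancer cells only) was read by plate reader every 8 h for 72 h. Values are normalised to each well's pre-drug value. The stock of one drug was tenfold lower, so its dose labels may be too high.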

CC(C)C[C@H](NC(=O)[C@H](Cc1ccccc1)NC(=O)c1cnccn1)B(O)O [Bortezomib]
relative JC-1 red fluorescence
Conditions	8 h	16 h	24 h	32 h	40 h	48 h	56 h	64 h	72 h
10 µM	0.905 ± 0.066	0.6 ± 0.069	0.487 ± 0.021	0.48 ± 0.02	0.446 ± 0.012	0.429 ± 0.0063	0.4302 ± 0.001	0.4105 ± 0.0037	0.412 ± 0.012
100 µM	0.9061 ± 0.0029	0.666 ± 0.052	0.576 ± 0.12	0.566 ± 0.15	0.546 ± 0.16	0.533 ± 0.17	0.533 ± 0.18	0.518 ± 0.17	0.524 ± 0.17

relative JC-1 red fluorescence
Conditions	8 h	16 h	24 h	32 h	40 h	48 h	56 h	64 h	72 h
10 µM, coculture fibroblast: C12385	0.7718 ± 0.0029	0.5357 ± 0.00079	0.498 ± 0.026	0.402 ± 0.021	0.365 ± 0.026	0.354 ± 0.029	0.345 ± 0.027	0.346 ± 0.032	0.348 ± 0.031
10 µM, coculture fibroblast: H6013	0.755 ± 0.025	0.573 ± 0.043	0.547 ± 0.059	0.551 ± 0.052	0.553 ± 0.053	0.566 ± 0.05	0.562 ± 0.052	0.568 ± 0.055	0.554 ± 0.051
10 µM, coculture fibroblast: H6019	0.7326 ± 0.0064	0.593 ± 0.0083	0.612 ± 0.067	0.546 ± 0.07	0.546 ± 0.075	0.553 ± 0.081	0.552 ± 0.084	0.578 ± 0.086	0.584 ± 0.091
10 µM, coculture fibroblast: H6076	0.9043 ± 0.0025	0.614 ± 0.022	0.516 ± 0.048	0.529 ± 0.053	0.514 ± 0.05	0.538 ± 0.054	0.545 ± 0.057	0.557 ± 0.057	0.57 ± 0.058
10 µM, coculture fibroblast: H6231	0.898 ± 0.039	0.5642 ± 0.0044	0.533 ± 0.0066	0.52017 ± 0.00022	0.471 ± 0.0087	0.469 ± 0.0061	0.445 ± 0.0069	0.444 ± 0.009	0.442 ± 0.002
10 µM, coculture fibroblast: HADF	0.799 ± 0.016	0.601 ± 0.011	0.494 ± 0.0098	0.46 ± 0.012	0.438 ± 0.011	0.425 ± 0.01	0.405 ± 0.0042	0.3961 ± 0.0035	0.3761 ± 0.0029
10 µM, coculture fibroblast: HCFa	0.7388 ± 0.0024	0.533 ± 0.028	0.479 ± 0.042	0.45 ± 0.049	0.441 ± 0.048	0.443 ± 0.048	0.439 ± 0.046	0.441 ± 0.043	0.422 ± 0.035
10 µM, coculture fibroblast: HCPF	0.873 ± 0.034	0.645 ± 0.016	0.576 ± 0.016	0.581 ± 0.028	0.536 ± 0.038	0.53 ± 0.034	0.54 ± 0.037	0.512 ± 0.041	0.504 ± 0.039
10 µM, coculture fibroblast: HHSteC	0.749 ± 0.028	0.521 ± 0.091	0.46 ± 0.12	0.445 ± 0.11	0.43 ± 0.11	0.422 ± 0.1	0.418 ± 0.11	0.412 ± 0.096	0.395 ± 0.097
10 µM, coculture fibroblast: HMF	0.8735 ± 0.0041	0.658 ± 0.021	0.607 ± 0.0073	0.604 ± 0.021	0.569 ± 0.029	0.563 ± 0.03	0.559 ± 0.034	0.561 ± 0.034	0.563 ± 0.03
10 µM, coculture fibroblast: HPFa	0.844 ± 0.019	0.638 ± 0.016	0.6148 ± 0.0055	0.605 ± 0.013	0.606 ± 0.012	0.599 ± 0.018	0.583 ± 0.018	0.581 ± 0.02	0.554 ± 0.025
10 µM, coculture fibroblast: HUF	0.803 ± 0.023	0.58 ± 0.11	0.577 ± 0.13	0.5 ± 0.12	0.47 ± 0.12	0.458 ± 0.12	0.444 ± 0.12	0.449 ± 0.12	0.441 ± 0.12
10 µM, coculture fibroblast: Hs27A	0.859 ± 0.045	0.562 ± 0.068	0.523 ± 0.094	0.513 ± 0.13	0.509 ± 0.16	0.519 ± 0.18	0.508 ± 0.19	0.515 ± 0.21	0.492 ± 0.21
10 µM, coculture fibroblast: Hs343T	0.902 ± 0.017	0.625 ± 0.0069	0.5421 ± 0.001	0.5383 ± 0.0034	0.4902 ± 0.0017	0.486 ± 0.007	0.4757 ± 0.0013	0.4712 ± 0.0034	0.4771 ± 0.0046
10 µM, coculture fibroblast: WS1	0.7553 ± 0.0022	0.543 ± 0.055	0.512 ± 0.082	0.416 ± 0.066	0.382 ± 0.065	0.38 ± 0.068	0.36 ± 0.062	0.371 ± 0.067	0.37 ± 0.068
100 µM, coculture fibroblast: C12385	0.7903 ± 0.0016	0.587 ± 0.015	0.507 ± 0.011	0.425 ± 0.0057	0.383 ± 0.012	0.365 ± 0.018	0.352 ± 0.022	0.349 ± 0.023	0.345 ± 0.023
100 µM, coculture fibroblast: H6013	0.836 ± 0.023	0.631 ± 0.017	0.511 ± 0.03	0.502 ± 0.042	0.497 ± 0.047	0.496 ± 0.05	0.491 ± 0.053	0.5 ± 0.064	0.485 ± 0.058
100 µM, coculture fibroblast: H6019	0.781 ± 0.0088	0.558 ± 0.0063	0.55 ± 0.038	0.478 ± 0.046	0.466 ± 0.056	0.469 ± 0.06	0.47 ± 0.06	0.483 ± 0.058	0.483 ± 0.058
100 µM, coculture fibroblast: H6076	0.9098 ± 0.0076	0.5581 ± 0.001	0.5 ± 0.038	0.502 ± 0.045	0.487 ± 0.046	0.5 ± 0.044	0.499 ± 0.047	0.496 ± 0.05	0.506 ± 0.052
100 µM, coculture fibroblast: H6231	0.877 ± 0.019	0.605 ± 0.06	0.486 ± 0.041	0.521 ± 0.049	0.467 ± 0.044	0.454 ± 0.039	0.431 ± 0.031	0.415 ± 0.031	0.409 ± 0.037
100 µM, coculture fibroblast: HADF	0.88 ± 0.028	0.73 ± 0.091	0.61 ± 0.073	0.581 ± 0.09	0.553 ± 0.08	0.547 ± 0.084	0.514 ± 0.088	0.503 ± 0.091	0.471 ± 0.083
100 µM, coculture fibroblast: HCFa	0.827 ± 0.031	0.623 ± 0.051	0.549 ± 0.016	0.541 ± 0.011	0.533 ± 0.0097	0.537 ± 0.011	0.522 ± 0.012	0.525 ± 0.016	0.498 ± 0.023
100 µM, coculture fibroblast: HCPF	0.9003 ± 0.0016	0.658 ± 0.021	0.507 ± 0.01	0.4985 ± 0.0017	0.4519 ± 0.0018	0.445 ± 0.0021	0.4372 ± 0.0016	0.4116 ± 0.0022	0.4065 ± 0.0027
100 µM, coculture fibroblast: HHSteC	0.8874 ± 0.005	0.623 ± 0.064	0.56 ± 0.0085	0.529 ± 0.043	0.497 ± 0.053	0.476 ± 0.061	0.456 ± 0.064	0.444 ± 0.066	0.423 ± 0.061
100 µM, coculture fibroblast: HMF	0.9215 ± 0.0021	0.724 ± 0.039	0.50388 ± 0.0003	0.4858 ± 0.0037	0.442 ± 0.0079	0.428 ± 0.013	0.411 ± 0.0086	0.409 ± 0.012	0.401 ± 0.0072
100 µM, coculture fibroblast: HPFa	0.877 ± 0.018	0.629 ± 0.075	0.551 ± 0.084	0.529 ± 0.089	0.516 ± 0.085	0.503 ± 0.08	0.478 ± 0.082	0.467 ± 0.082	0.444 ± 0.085
100 µM, coculture fibroblast: HUF	0.866 ± 0.00091	0.643 ± 0.012	0.642 ± 0.025	0.563 ± 0.044	0.531 ± 0.049	0.512 ± 0.06	0.492 ± 0.055	0.493 ± 0.068	0.485 ± 0.061
100 µM, coculture fibroblast: Hs27A	0.856 ± 0.036	0.716 ± 0.095	0.654 ± 0.045	0.618 ± 0.0086	0.568 ± 0.0084	0.557 ± 0.027	0.524 ± 0.04	0.507 ± 0.058	0.467 ± 0.06
100 µM, coculture fibroblast: Hs343T	0.938 ± 0.024	0.682 ± 0.016	0.442 ± 0.098	0.449 ± 0.094	0.411 ± 0.1	0.4 ± 0.097	0.386 ± 0.1	0.378 ± 0.099	0.383 ± 0.094
100 µM, coculture fibroblast: WS1	0.785 ± 0.02	0.53 ± 0.069	0.487 ± 0.1	0.397 ± 0.093	0.36 ± 0.088	0.349 ± 0.085	0.332 ± 0.081	0.333 ± 0.082	0.33 ± 0.079
